Measured values taken from patent US9617282B2, “Macrocyclic compounds as IRAK4 inhibitors for the treatment of inflammatory diseases” (BIOGEN MA INC., priority 2013, dated 2017).

By UniProt entry, the sequences of proteins in these tests, tags left out.
UniProt Q9NWZ3, whole entry: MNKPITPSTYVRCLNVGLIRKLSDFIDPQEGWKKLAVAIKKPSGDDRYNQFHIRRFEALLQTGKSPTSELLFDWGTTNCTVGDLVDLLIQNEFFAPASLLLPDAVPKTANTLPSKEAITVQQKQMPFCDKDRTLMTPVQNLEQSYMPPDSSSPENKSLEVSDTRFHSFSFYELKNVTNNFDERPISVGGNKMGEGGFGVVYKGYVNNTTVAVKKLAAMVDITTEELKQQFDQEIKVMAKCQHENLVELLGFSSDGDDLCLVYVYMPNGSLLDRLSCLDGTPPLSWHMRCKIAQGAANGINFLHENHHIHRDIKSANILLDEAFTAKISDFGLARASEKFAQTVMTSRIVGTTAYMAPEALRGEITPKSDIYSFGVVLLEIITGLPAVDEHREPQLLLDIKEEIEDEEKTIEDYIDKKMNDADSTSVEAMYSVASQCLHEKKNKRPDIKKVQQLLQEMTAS

What was measured:
IRAK4 = IRAK4 (Homo sapiens (Human), UniProt Q9NWZ3); assay: IRAK-4 biochemical kinase assay, AlphaScreen format; conditions: read-out: Biochemical IRAK4 IC50
A549 cells = assay: Cell-based assay, IL-6 ELISA quantification in IL-1 beta stimulated A549 cells; conditions: read-out: Celluar Data EC50, 2 ng/ml human IL-1 beta overnight, class symbols

Compound | IC50 (IRAK4; 1 nM IRAK4, 1.6 μM peptide, 10 μM ATP, 3.5 h at RT, class symbols) [µM] | EC50 (A549 cells) [µM] | IC50 (IRAK4) [µM]
O=C1Nc2cn(CCCO)nc2C(=O)NCCOCCOc2cc(ccn2)-c2nc1cs2 [Example 152] | < 1 | > 10 | –
CN1CCC(Cn2cc3c(n2)C(=O)NCCOCCOc2cc(ccn2)-c2nc(cs2)C(=O)N3)CC1 [Example 158] | – | > 10 | < 0.1

Like-named read-outs stand apart in the source and are kept apart here. The structures given here were assigned with low confidence; some may be wrong.
